No constants are given. Whether binding was seen depends on the method and setting. For part of these data: In cells and extracts the contact can be indirect. Some entries that bind do so weakly or less than the wild type. Values belong to the substance of their own block, whether it stands above or below them.
Experiments:
[1] = target: human FGFR1c expressed on L6 cells (human) (UniProt P11362); experiment: co-immunoprecipitation from L6 cell lysates: IP anti-FGFR, IB anti-β-Klotho [left panel]
[2] = target: human FGFR1c expressed on L6 cells (human) (UniProt P11362); experiment: co-immunoprecipitation with anti-FGFR1 antibody from L6 cells
[3] = target: human FGFR1c expressed on L6 cells (human) (UniProt P11362); experiment: co-immunoprecipitation from L6 cell lysates: IP anti-FGFR, IB anti-β-Klotho
[4] = target: extracellular domain of human β-Klotho (sKLB) (human) (UniProt Q86Z14); experiment: MST competition: GST-FGF21CT titrated into a constant mixture of sKLB and fluorescently labelled FGF21 (competitor: fl-FGF21)
[5] = target: FGFR1cD2D3 (ligand binding region of FGFR1c) (UniProt P11362); experiment: MST: sKLB titrated into fluorescently labelled FGFR1cD2D3
[6] = target: R203W/L194F-mutated FGF21 (FGF21WF) (human) (UniProt Q9NSA1); experiment: MST: sKLB titrated into fluorescently labelled FGF21 R203W/L194F, plotted as fraction bound

Amino acid sequences for entries named in this document (tags omitted). A change or cut given only in a name is not applied to a line headed by its entry. Residues count along the entry.
UniProt P11362: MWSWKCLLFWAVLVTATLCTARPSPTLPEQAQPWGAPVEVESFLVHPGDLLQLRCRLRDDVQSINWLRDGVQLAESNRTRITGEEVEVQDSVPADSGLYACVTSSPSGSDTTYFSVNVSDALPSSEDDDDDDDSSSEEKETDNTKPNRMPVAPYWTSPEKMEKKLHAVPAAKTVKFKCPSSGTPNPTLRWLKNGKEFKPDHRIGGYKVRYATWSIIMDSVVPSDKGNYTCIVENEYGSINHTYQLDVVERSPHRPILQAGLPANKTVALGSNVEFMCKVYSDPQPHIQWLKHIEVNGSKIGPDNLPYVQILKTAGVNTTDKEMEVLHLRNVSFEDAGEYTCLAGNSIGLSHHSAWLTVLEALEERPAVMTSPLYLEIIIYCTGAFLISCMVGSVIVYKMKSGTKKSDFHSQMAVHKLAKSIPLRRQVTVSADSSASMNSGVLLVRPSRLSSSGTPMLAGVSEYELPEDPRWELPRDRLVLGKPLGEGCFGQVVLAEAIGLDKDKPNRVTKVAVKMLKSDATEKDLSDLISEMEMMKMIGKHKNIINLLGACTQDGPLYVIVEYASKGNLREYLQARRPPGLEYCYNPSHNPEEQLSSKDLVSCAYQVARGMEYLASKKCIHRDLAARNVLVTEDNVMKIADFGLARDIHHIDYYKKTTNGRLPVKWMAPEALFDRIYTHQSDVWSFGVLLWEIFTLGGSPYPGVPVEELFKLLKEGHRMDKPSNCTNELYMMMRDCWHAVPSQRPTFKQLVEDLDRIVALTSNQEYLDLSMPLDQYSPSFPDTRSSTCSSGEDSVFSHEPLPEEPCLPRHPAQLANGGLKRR
human FGFR1c expressed on L6 cells: residues 22-822 of P11362
FGFR1cD2D3 (ligand binding region of FGFR1c): residues 142-365 of P11362
UniProt Q86Z14: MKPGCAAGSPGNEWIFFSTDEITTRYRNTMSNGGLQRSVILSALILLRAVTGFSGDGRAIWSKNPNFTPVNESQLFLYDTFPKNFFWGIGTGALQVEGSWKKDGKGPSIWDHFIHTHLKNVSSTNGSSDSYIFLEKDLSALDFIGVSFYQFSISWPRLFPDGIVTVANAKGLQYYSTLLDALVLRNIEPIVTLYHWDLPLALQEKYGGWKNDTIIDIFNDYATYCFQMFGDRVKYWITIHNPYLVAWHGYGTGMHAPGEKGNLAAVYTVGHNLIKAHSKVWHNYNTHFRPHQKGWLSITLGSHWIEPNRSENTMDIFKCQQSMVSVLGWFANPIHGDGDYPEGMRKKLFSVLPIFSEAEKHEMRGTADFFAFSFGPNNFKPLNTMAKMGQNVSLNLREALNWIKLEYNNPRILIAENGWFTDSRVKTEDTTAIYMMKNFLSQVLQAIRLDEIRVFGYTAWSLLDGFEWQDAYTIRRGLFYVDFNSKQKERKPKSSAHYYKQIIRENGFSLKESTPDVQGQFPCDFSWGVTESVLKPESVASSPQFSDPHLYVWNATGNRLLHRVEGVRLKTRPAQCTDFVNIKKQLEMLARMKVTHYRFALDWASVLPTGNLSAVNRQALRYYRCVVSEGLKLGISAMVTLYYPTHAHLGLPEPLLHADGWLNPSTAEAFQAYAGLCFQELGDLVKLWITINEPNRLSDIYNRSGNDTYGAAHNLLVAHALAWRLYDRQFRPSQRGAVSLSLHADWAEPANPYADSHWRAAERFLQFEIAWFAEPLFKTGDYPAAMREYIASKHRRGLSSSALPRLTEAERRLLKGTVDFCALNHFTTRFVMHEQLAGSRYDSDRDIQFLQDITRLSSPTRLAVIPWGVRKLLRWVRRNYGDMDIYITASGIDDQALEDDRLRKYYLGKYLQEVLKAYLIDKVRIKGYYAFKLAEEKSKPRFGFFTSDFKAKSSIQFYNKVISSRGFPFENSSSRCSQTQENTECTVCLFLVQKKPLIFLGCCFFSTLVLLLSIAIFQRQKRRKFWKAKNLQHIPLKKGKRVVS
UniProt Q9NSA1: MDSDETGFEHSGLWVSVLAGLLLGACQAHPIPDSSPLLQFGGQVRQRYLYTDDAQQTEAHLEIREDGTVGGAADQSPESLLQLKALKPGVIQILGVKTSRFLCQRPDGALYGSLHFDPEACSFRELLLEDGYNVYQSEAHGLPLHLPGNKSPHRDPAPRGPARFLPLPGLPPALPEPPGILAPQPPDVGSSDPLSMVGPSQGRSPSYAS

binding [1]: binds | binding [2]: binds | binding [3]: binds
Substance: full-length human β-Klotho (KLB), C-terminal HA-tagged, on L6 cells (from UniProt Q86Z14 53-1044) (receptor)

binding [4]: binds
Substance: GST-fused FGF21CT (GST-FGF21CT), wild type (from UniProt Q9NSA1 169-209)

binding [5]: binds | binding [6]: binds
Substance: extracellular domain of human β-Klotho (sKLB) (from UniProt Q86Z14 53-983) (receptor)
